PubChem BioAssay AID686938 – Drosophila RNAi Screening Center, 2013
Aim: 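Knock-downs reducing store-operated calcium influx in Drosophila cells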 (primary screen). Cells: Drosophila S2R+ cells. Reagents: long dsRNA against Drosophila genes, about 0.25 µg dsRNA per well, roughly 10,000 cells. Timing: 5 days of knock-down before the calcium assay. Challenge: thapsigargin (SERCA pump blocker) to empty calcium stores; entry signal taken 4 min after adding it. Read-out: 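Duplicate raw fluo-4 intensities per well from a plate reader, at rest and four minutes after thapsigargin emptied calcium stores; entry-to-rest ratio filled for only some wells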. Scale: calcium entry signal: higher = stronger calcium signal after store depletion; entry to resting ratio: higher = more calcium entry relative to resting level; resting calcium signal: higher = higher resting calcium signal. Call rule: 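Hit if the duplicate-averaged plate z-score for entry over resting signal is under −3; wells with weak total dye signal (Fmax z < −2) or more than 5 off-targets removed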. Calls: active = strongly reduced calcium entry; inactive = no strong reduction.
The screen tested about 23,000 reagents; below is a random part of those that have a named target and a result. Of all reagents, 75 (0.33%) were called active. 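Raw plate signals without normalisation; calls rest on plate z-scores that were not deposited; ratio present for only 364 wells.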 Names joined by + are all predicted targets of the reagent. Reagent sequences are not shown. Not stated in the record: the dose of the treatment.

| gene | amplicon | calcium entry signal, replicate 1 (fluorescence units) | calcium entry signal, replicate 2 (fluorescence units) | entry to resting ratio | resting calcium signal, replicate 1 (fluorescence units) | resting calcium signal, replicate 2 (fluorescence units) | outcome |
| --- | --- | --- | --- | --- | --- | --- | --- |
| Rox8 | DRSC16829 | 3.67e7 | 6.11e7 | – | 3.08e7 | 2.42e7 | inactive |
| CG13073 | DRSC09956 | 3.34e7 | 4.25e7 | – | 1.71e7 | 1.59e7 | inactive |
| CG43288 | DRSC17314 | 5.43e7 | 3.83e7 | – | 2.41e7 | 1.73e7 | inactive |
| CG13060 | DRSC09943 | 3.82e7 | 3.82e7 | – | 1.65e7 | 1.83e7 | inactive |
| Rsph9 (Radial spoke head protein 9) | DRSC01594 | 3.62e7 | 3.98e7 | – | 1.93e7 | 1.95e7 | inactive |
| CG9004 | DRSC08617 | 2.83e7 | 3.07e7 | – | 1.62e7 | 1.67e7 | inactive |
| Tango9 (Transport and Golgi organization 9) | DRSC14173 | 2.70e7 | 4.74e7 | – | 1.25e7 | 1.91e7 | inactive |
| CG14245 | DRSC14740 | 2.42e7 | 3.62e7 | – | 1.28e7 | 1.59e7 | inactive |
| Fur1 (Furin 1) | DRSC13707 | 3.16e7 | 3.23e7 | – | 1.52e7 | 1.62e7 | inactive |
| Fur1 (Furin 1) | DRSC16676 | 2.57e7 | 2.30e7 | – | 1.23e7 | 1.24e7 | inactive |
| Pcyt2 (Phosphocholine cytidylyltransferase 2) | DRSC08531 | 3.17e7 | 2.85e7 | – | 1.51e7 | 1.40e7 | inactive |
| SkpB (SKP1-related B) | DRSC07683 | 2.00e7 | 3.82e7 | – | 1.04e7 | 1.58e7 | inactive |
| Cox10 (Cytochrome c oxidase assembly factor 10) | DRSC02804 | 5.05e7 | – | – | 2.56e7 | – | inactive |
| GILT1 (Gamma-interferon-inducible lysosomal thiol reductase 1) | DRSC16565 | 3.96e7 | 4.83e7 | – | 1.62e7 | 2.10e7 | inactive |
| nudE | DRSC09000 | 2.60e7 | 4.27e7 | – | 1.35e7 | 1.86e7 | inactive |
| nudE | DRSC10962 | 3.10e7 | 4.58e7 | – | 1.67e7 | 2.13e7 | inactive |
| CG2712 | DRSC18589 | 3.42e7 | 4.17e7 | – | 1.57e7 | 1.91e7 | inactive |
| Def (Defensin) | DRSC07398 | 4.92e7 | 3.69e7 | – | 2.09e7 | 1.61e7 | inactive |
| nvy (nervy) | DRSC04705 | 4.00e7 | 4.51e7 | – | 1.90e7 | 2.03e7 | inactive |
| osa | DRSC17022 | 4.66e7 | 3.60e7 | – | 2.39e7 | 1.87e7 | inactive |
| CG14785 | DRSC18604 | 2.77e7 | 3.31e7 | – | 1.34e7 | 1.62e7 | inactive |
| OtopLc (Otopetrin-like c) | DRSC18082 | 3.54e7 | 4.76e7 | – | 1.83e7 | 2.20e7 | inactive |
| OtopLc (Otopetrin-like c) | DRSC18083 | 2.89e7 | 4.44e7 | – | 1.52e7 | 2.05e7 | inactive |
| OtopLc (Otopetrin-like c) | DRSC18132 | 3.52e7 | 4.74e7 | – | 1.69e7 | 2.20e7 | inactive |
| CG11454 | DRSC00310 | 3.88e7 | – | – | 1.77e7 | – | inactive |
| CG9377 | DRSC03217 | 4.01e7 | – | – | 2.14e7 | – | inactive |
| CG9692 | DRSC11091 | 3.61e7 | 6.23e7 | – | 1.87e7 | 2.34e7 | inactive |
| Dlish (Dachs ligand with SH3s) | DRSC06016 | 3.96e7 | 5.10e7 | – | 1.83e7 | 2.51e7 | inactive |
| CG7668 | DRSC10901 | 3.36e7 | 4.51e7 | – | 1.60e7 | 3.01e7 | inactive |
| HemK1 (HemK methyltransferase 1) | DRSC03253 | 4.28e7 | – | – | 2.37e7 | – | inactive |
| CG30377 | DRSC06477 | 3.22e7 | 2.57e7 | – | 1.52e7 | 1.23e7 | inactive |
| CG30377 | DRSC06799 | 4.58e7 | 3.52e7 | – | 2.05e7 | 1.57e7 | inactive |
| CG6356 | DRSC16026 | 3.64e7 | 5.93e7 | – | 1.94e7 | 2.53e7 | inactive |
| CG13639 | DRSC14638 | 3.46e7 | 2.77e7 | – | 1.63e7 | 1.33e7 | inactive |
| Mfe2 (peroxisomal Multifunctional enzyme type 2) | DRSC19869 | 4.09e7 | 4.00e7 | – | 1.98e7 | 1.79e7 | inactive |
| Acp29AB (Accessory gland protein 29AB) | DRSC01857 | 3.36e7 | 3.89e7 | – | 1.72e7 | 1.92e7 | inactive |
| Srp19 (Signal recognition particle 19) | DRSC11288 | 2.01e7 | 3.18e7 | – | 1.14e7 | 1.57e7 | inactive |
| CG2187 | DRSC15425 | 2.67e7 | 4.14e7 | 1.8 | 1.48e7 | 1.71e7 | inactive |
| CG42354 + CG42353 | DRSC20172 | 4.11e7 | 4.06e7 | – | 1.98e7 | 1.96e7 | inactive |
| CG18735 | DRSC04312 | 5.03e7 | 5.18e7 | – | 2.52e7 | 2.18e7 | inactive |
| Rtf1 | DRSC04085 | 1.86e7 | – | – | 1.01e7 | – | inactive |

Continued (5 carried over from the part before).
| gene | amplicon | calcium entry signal, replicate 1 (fluorescence units) | calcium entry signal, replicate 2 (fluorescence units) | entry to resting ratio | resting calcium signal, replicate 1 (fluorescence units) | resting calcium signal, replicate 2 (fluorescence units) | outcome |
| --- | --- | --- | --- | --- | --- | --- | --- |
| Srp19 (Signal recognition particle 19) | DRSC11288 | 2.01e7 | 3.18e7 | – | 1.14e7 | 1.57e7 | inactive |
| CG2187 | DRSC15425 | 2.67e7 | 4.14e7 | 1.8 | 1.48e7 | 1.71e7 | inactive |
| CG42354 + CG42353 | DRSC20172 | 4.11e7 | 4.06e7 | – | 1.98e7 | 1.96e7 | inactive |
| CG18735 | DRSC04312 | 5.03e7 | 5.18e7 | – | 2.52e7 | 2.18e7 | inactive |
| Rtf1 | DRSC04085 | 1.86e7 | – | – | 1.01e7 | – | inactive |
| Dscam1 (Down syndrome cell adhesion molecule 1) | DRSC05047 | 2.30e7 | 4.43e7 | – | 1.18e7 | 1.96e7 | inactive |
| Dscam1 (Down syndrome cell adhesion molecule 1) | DRSC05048 | 2.84e7 | 4.23e7 | – | 1.33e7 | 1.79e7 | inactive |
| Dscam1 (Down syndrome cell adhesion molecule 1) | DRSC07407 | 3.53e7 | 4.40e7 | – | 1.71e7 | 1.88e7 | inactive |
| Dscam1 (Down syndrome cell adhesion molecule 1) | DRSC21562 | 3.98e7 | 3.67e7 | – | 2.41e7 | 1.77e7 | inactive |
| Dscam1 (Down syndrome cell adhesion molecule 1) | DRSC22383 | 4.05e7 | 3.24e7 | – | 2.40e7 | 1.65e7 | inactive |
| Sema1b (Semaphorin 1b) | DRSC07550 | 2.91e7 | 2.66e7 | – | 1.34e7 | 1.33e7 | inactive |
| CG9030 | DRSC20139 | 4.37e7 | 2.95e7 | – | 2.21e7 | 1.48e7 | inactive |
| CG13325 | DRSC06362 | 3.58e7 | 3.90e7 | – | 1.66e7 | 1.84e7 | inactive |
| wdp (windpipe) | DRSC04367 | 3.23e7 | – | – | 1.60e7 | – | inactive |
| Ubi-p63E (Ubiquitin-63E) | DRSC22016 | 2.98e7 | 7.41e7 | – | 1.44e7 | 3.12e7 | inactive |
| CG32461 | DRSC11594 | 3.67e7 | 4.37e7 | – | 1.82e7 | 2.11e7 | inactive |
| wwk (white walker) | DRSC01941 | 3.71e7 | 2.59e7 | – | 1.64e7 | 1.27e7 | inactive |
| CG3732 | DRSC04410 | 3.43e7 | – | – | 1.63e7 | – | inactive |
| scny (scrawny) | DRSC10509 | 3.22e7 | 1.95e7 | – | 2.21e7 | 9.13e6 | inactive |
| scny (scrawny) | DRSC10510 | 4.29e7 | 4.43e7 | – | 2.24e7 | 2.31e7 | inactive |
| scny (scrawny) | DRSC23229 | 3.76e7 | 4.23e7 | – | 1.95e7 | 1.88e7 | inactive |
| Glut4EF (Glucose transporter 4 enhancer factor) | DRSC14347 | 3.89e7 | 4.10e7 | – | 2.30e7 | 2.22e7 | inactive |
| Glut4EF (Glucose transporter 4 enhancer factor) | DRSC14512 | 4.22e7 | 3.93e7 | – | 2.09e7 | 1.92e7 | inactive |
| Glut4EF (Glucose transporter 4 enhancer factor) | DRSC14541 | 4.40e7 | 3.85e7 | – | 2.06e7 | 1.87e7 | inactive |
| Glut4EF (Glucose transporter 4 enhancer factor) | DRSC14542 | 4.12e7 | 3.59e7 | – | 2.15e7 | 1.87e7 | inactive |
| Glut4EF (Glucose transporter 4 enhancer factor) | DRSC14543 | 3.87e7 | 3.65e7 | – | 1.93e7 | 1.80e7 | inactive |
| Glut4EF (Glucose transporter 4 enhancer factor) | DRSC23038 | 3.17e7 | 3.93e7 | – | 1.67e7 | 1.77e7 | inactive |
